Test results published in patent US20180252698.

Protein sequences, listed by entry. Tags and fused reporters are not part of them. Lines headed by an entry give the natural chain unless they say otherwise; changes in a name come on top.
UniProt Q04609: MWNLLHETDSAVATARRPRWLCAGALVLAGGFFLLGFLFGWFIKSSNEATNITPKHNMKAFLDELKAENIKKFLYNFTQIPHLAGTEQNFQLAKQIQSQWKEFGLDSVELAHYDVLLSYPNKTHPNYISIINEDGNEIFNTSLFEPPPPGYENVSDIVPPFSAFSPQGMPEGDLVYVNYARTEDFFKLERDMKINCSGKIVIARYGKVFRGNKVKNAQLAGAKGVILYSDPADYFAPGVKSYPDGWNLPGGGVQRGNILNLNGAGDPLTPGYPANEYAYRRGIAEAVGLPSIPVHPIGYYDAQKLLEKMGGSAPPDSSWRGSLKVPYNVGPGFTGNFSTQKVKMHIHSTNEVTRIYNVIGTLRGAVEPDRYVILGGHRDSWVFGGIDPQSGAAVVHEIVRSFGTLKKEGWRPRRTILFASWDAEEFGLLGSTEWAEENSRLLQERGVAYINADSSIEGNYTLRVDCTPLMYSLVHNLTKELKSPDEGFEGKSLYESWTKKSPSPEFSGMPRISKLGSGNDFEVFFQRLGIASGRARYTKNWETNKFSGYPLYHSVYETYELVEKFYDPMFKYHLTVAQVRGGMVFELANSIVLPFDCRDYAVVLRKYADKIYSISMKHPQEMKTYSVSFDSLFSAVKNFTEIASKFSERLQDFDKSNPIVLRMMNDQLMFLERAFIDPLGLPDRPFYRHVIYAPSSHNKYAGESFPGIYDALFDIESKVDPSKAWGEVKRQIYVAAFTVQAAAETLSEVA

Key:
[1] = biological target: PSMA (prostate specific membrane antigen) on LNCaP cells (UniProt Q04609); experiment: binding assay; conditions: 5' NH2-(CH2)6-(OCH2CH2)6 linker; nuclease-stabilized (modification not specified); LNCaP cell capture from whole blood in PMMA microfluidic channels, 2.5 mm/s; protein on the cell surface; protein details: LNCaP prostate cancer cell line …
[2] = system: MCF-7 cell surface (off-target breast cancer cell control); experiment: binding assay; conditions: 5' NH2-(CH2)6-(OCH2CH2)6 linker; nuclease-stabilized (modification not specified); no MCF-7 cells captured from spiked whole blood; protein on the cell surface; protein details: MCF-7 breast cancer cell line, ATCC

Question: Which results are given for “ACCAAGACCUGACUUCUAACUAAGUCUACGUUCC [anti-PSMA RNA aptamer]”?
Answer: binding result [1]: binds; binding result [2]: no binding

At least one result comes from cells or an extract, where the contact may be indirect. For some assays here: The exact form of at least one protein or probe is not confirmed. For some assays here: A negative result means that nothing was seen under these conditions.
